## Screening data, single-dose tests

Mtb glucose medium: 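Phenotypic screen: M. tuberculosis growth, glucose 7H9 medium, 3 days; the read-out is not stated. Concentration: 50 µM. The record gives no direction; compounds that gave an IC50 in retests scored well above the rest, so higher reads as more growth inhibition. About 69,000 compounds were tested under these conditions; 1.1% (about 760) showed 50% or more at least once.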
Mtb cholesterol medium: 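Growth of Mycobacterium tuberculosis over 4 days (cholesterol / DPPC medium with tyloxapol); the read-out is not stated. Concentration: 50 µM. Direction is inferred from retests: higher values go with more growth inhibition. Of about 69,000 compounds tested this way, about 370 (0.54%) reached 50% or more in at least one test.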

Values are the deposited “Percent Effect”, in %.
The record does not define 0% and 100%; most values in the screen are far below 50% and negative numbers occur (in some assays of this library far below -100).
Compounds were drawn at random from those tested, without regard to their results.
Two or more numbers in one place are separate tests of the same structure; such repeats can differ widely.

With C/C=C(\C)CN1CCC2(CCC(=O)N2OCc2ccccc2F)CC1 the screen gave Mtb glucose medium: 31.11%; Mtb cholesterol medium: 19.24%.
With COc1c(C2CCCN2Cc2nc(C)c(C)o2)c(C)nn1C (centres unmarked) the screen gave Mtb glucose medium: -12.96%; Mtb cholesterol medium: -3.811%.
With CCC(=O)N1CCC(c2nnc(Cn3cncn3)n2C2CC2)CC1 the screen gave Mtb glucose medium: -22.23% and -7.279%; Mtb cholesterol medium: 1.975%.
With COCCN(Cc1ccoc1)C(=O)c1cccnc1SC the screen gave Mtb glucose medium: 7.698%; Mtb cholesterol medium: -1.264%.
With CCCOCC(=O)NS(=O)(=O)c1ccc2c(c1)OCCCO2 the screen gave Mtb glucose medium: -18.79%; Mtb cholesterol medium: -32.44%.
With O=C1c2cnc(N3CCOCC3)nc2CN1C1CCS(=O)(=O)C1 (centres unmarked) the screen gave Mtb glucose medium: 0.6597%; Mtb cholesterol medium: -25.82%.
With CC(C)NC(=O)N[C@H]1C[C@@H](c2nc(-c3ccc(F)cc3)no2)N(C)C1 the screen gave Mtb glucose medium: -14.3% and 0.9254%; Mtb cholesterol medium: -4.141%.
With CC(NC(N)=O)C(=O)N(C)CCCc1cc(-c2ccccc2)no1 (centres unmarked) the screen gave Mtb glucose medium: 1.409%; Mtb cholesterol medium: -2.636%.
With CN(C)CCN1CCc2ncc(CN(C)Cc3ccco3)n2CC1 the screen gave Mtb glucose medium: -3.119% and -29.65%; Mtb cholesterol medium: -17.69%.
With CC(C)Cc1nnc(SCC(=O)O)n1-c1ccc(F)cc1F the screen gave Mtb glucose medium: -16.25%; Mtb cholesterol medium: -12.51% and 11.88%.
With CCN1CCCCC1C(=O)N1CCC(OCCOC)CC1 (centres unmarked) the screen gave Mtb glucose medium: 28.42%; Mtb cholesterol medium: 12.92%.
With COc1ccc(-c2nc(C(=O)NCC3CCOC3)cs2)cc1OC (centres unmarked) the screen gave Mtb glucose medium: -20.45%; Mtb cholesterol medium: -8.766%.
With CC(C)(C)OC(=O)N1CCN(c2nnc(Br)s2)CC1 the screen gave Mtb glucose medium: -11.12% and 19.82%; Mtb cholesterol medium: -8.931%.
With CCc1nc(CN2CCN(C(=O)C3(C#N)CCCCC3)CC2)cs1 the screen gave Mtb glucose medium: 13.28% and -11.1%; Mtb cholesterol medium: -6.021%.
With [H][C@@]12COC[C@]1(COCC1CCOCC1)CN(C(=O)Cc1ccco1)C2 the screen gave Mtb glucose medium: -3.531%; Mtb cholesterol medium: -16.75%.
With Cn1c(CN2CCOCC2)nnc1C1CCN(C(=O)C2CCCC2)CC1 the screen gave Mtb glucose medium: -6.221%; Mtb cholesterol medium: -11.79%.
With COc1nc2cc(C)ccc2cc1CN(C)Cc1cc(C)[nH]n1.O=C(O)CC(O)(CC(=O)O)C(=O)O the screen gave Mtb glucose medium: -2.882%; Mtb cholesterol medium: 10.12% and -3.866%.
With O=C(CC1CSc2nccc(=O)n21)NCc1cc(-c2ccco2)on1 (centres unmarked) the screen gave Mtb glucose medium: -46.61%; Mtb cholesterol medium: -17%.
With COCC1c2nnn(CC3CC3)c2CCN1C(=O)Cc1cccs1 (centres unmarked) the screen gave Mtb glucose medium: 20.54%; Mtb cholesterol medium: 11.61%.
With [H][C@@]12CN(Cc3ccc(C)c(F)c3F)C[C@]1(C(=O)O)CN(CC1CC1)C2=O the screen gave Mtb glucose medium: -36.83%; Mtb cholesterol medium: -19.58%.
With O=C(Cc1ccc2c(c1)OCCO2)NC1CCCCC1 the screen gave Mtb glucose medium: 20.34%; Mtb cholesterol medium: -1.621%.
With CC(=O)Nc1nc(CS(=O)(=O)Cc2ccccc2)cs1 the screen gave Mtb glucose medium: 12.22%; Mtb cholesterol medium: 0.131%.
With O=C(O)C(F)(F)F.[H][C@@]12CCN(C3CCOCC3)C[C@]1([H])[C@H](C(=O)NC)CCO2 the screen gave Mtb glucose medium: -15.43% and -6.398%; Mtb cholesterol medium: -3.222%.
With Cc1cc(C2CCCN(C(=O)Cc3csc(C(C)C)n3)C2)n[nH]1 (centres unmarked) the screen gave Mtb glucose medium: -6.649%; Mtb cholesterol medium: -11.36%.
With CN(C)[C@@H]1CCN(C(=O)c2ccsc2)[C@H]1Cc1cccnc1.O=C(O)C(F)(F)F.O=C(O)C(F)(F)F the screen gave Mtb glucose medium: -29.87%; Mtb cholesterol medium: -4.866% and -7.48%.
With Cc1nc(CN2CCCN(Cc3nc4c(F)cccc4[nH]3)CC2)no1 the screen gave Mtb glucose medium: 8.212%; Mtb cholesterol medium: -7.528%.
With [H][C@@]12CCN(Cc3ccco3)C[C@@]1([H])O[C@H](C(=O)N1CCCO1)C2 the screen gave Mtb glucose medium: 30.86% and -5.716%; Mtb cholesterol medium: -6.406% and -78.13%.
With [H][C@@]12CCCN1C[C@@H](CCSC)N(Cc1coc3ccc(C)cc3c1=O)C2 the screen gave Mtb glucose medium: -3.854%; Mtb cholesterol medium: 9.674% and 7.795%.
With CCN(CC)S(=O)(=O)NCC1Cc2ccccc2O1 (centres unmarked) the screen gave Mtb glucose medium: -5.211%; Mtb cholesterol medium: 11.05%.

2 of the entries, repeated:

* COc1c(C2CCCN2Cc2nc(C)c(C)o2)c(C)nn1C (centres unmarked) : Mtb glucose medium: -12.96%; Mtb cholesterol medium: -3.811%
* COc1ccc(-c2nc(C(=O)NCC3CCOC3)cs2)cc1OC (centres unmarked) : Mtb glucose medium: -20.45%; Mtb cholesterol medium: -8.766%

The values are deposited in ChEMBL (CHEMBL3988442, “University of Dundee, Small-Polar-MMV Screening Library” (2021)).